Assay results as given in patent US20020082263A1, “Heterocycle derivatives as PPAR-gamma agonists” (priority 2000, published 2002).

Sequences of proteins named here, by UniProt entry; tags and fusion partners are left off.
UniProt P37231, whole entry: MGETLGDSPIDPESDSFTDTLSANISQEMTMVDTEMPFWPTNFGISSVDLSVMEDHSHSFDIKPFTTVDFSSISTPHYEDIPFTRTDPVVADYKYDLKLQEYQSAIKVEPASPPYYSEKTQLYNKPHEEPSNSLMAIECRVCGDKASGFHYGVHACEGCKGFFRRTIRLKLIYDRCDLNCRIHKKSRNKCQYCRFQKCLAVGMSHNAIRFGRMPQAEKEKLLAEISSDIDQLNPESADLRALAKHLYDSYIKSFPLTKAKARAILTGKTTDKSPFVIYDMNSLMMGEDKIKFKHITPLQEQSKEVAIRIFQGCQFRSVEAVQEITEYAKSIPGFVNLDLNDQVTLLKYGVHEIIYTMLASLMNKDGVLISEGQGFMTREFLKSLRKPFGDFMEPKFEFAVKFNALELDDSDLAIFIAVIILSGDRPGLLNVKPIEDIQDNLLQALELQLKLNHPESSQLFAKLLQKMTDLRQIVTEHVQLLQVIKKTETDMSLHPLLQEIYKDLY

Molecular target: PPAR-gamma (Homo sapiens, UniProt P37231)
Assay: Reporter gene assay in transfected HepG2 cells: transcriptional activation of a PPRE via a PPAR-gamma mediated pathway
Format: cell-based
Conditions: transfected human hepatoma (HepG2) cells, 36-48 h exposure, reporter gene activity

SMILES: COC(=O)CC1CN(Cc2cc(OC)cc(OC)c2)C(=O)[C@H](CC(C)C)N1C(=O)NC1CCCCC1 (stereo partly shown)
- EC50: > 10 µM

Structures were worked out from names or drawings and are uncertain.
